# USRE30731E, “Enkephalin analogues” (priority 1977, dated 1981)
# Not every detail of the peptide structures is certain; ends, links or a residue may be inferred.
# Test system: rat brain membranes
# Assay: radio receptor assay (R.R.A.): displacement of tritiated naloxone from rat brain membranes
# Assay type: binding
# Details: based on concentration displacing 50% of (3H)naloxone (1 nM) from rat brain membranes; 0.1 M NaCl/50 mM Tris pH 7.4; 15 minutes; bacitracin
# Procedure: (III)R.R.A. stands for radio receptor assay; based on the concentration
# required to displace 50% of tritiated naloxone from rat brain membranes.
# The displacements .[.replacements.]. were carried out against (^3
# H)naloxane (lnM) in 0.1 M sodium chloride/50mM Tris buffer at pH 7.4;
# incubations were for 15 minutes in the .Iadd.presence
# .Iaddend..[.absence.]. of bacitracin. For general reference to the method
# see literature as discussed in "Opiate Receptor Mechanisms". S. H. Snyder
# and S. Matthysse eds, MIT Press, 1975.
row,SMILES,"Activity Relative to Met Enkephalin, R.R.A."
1,"CSCC[C@H](NC(=O)[C@H](Cc1ccccc1)NC(=O)CNC(=O)CNC[C@@H](N)Cc1ccc(O)cc1)C(N)=O [Analogue H215, N-[2-amino, 3-(4'-hydroxyphenyl)propyl]glycylglycyl-L-phenylalanyl-L-methionine amide]",50%
2,CSCC[C@@H](CO)NC(=O)[C@H](Cc1ccccc1)NC(=O)CNC(=O)CNC[C@@H](N)Cc1ccc(O)cc1 [Analogue H216],200%
